# Part of at least one peptide drawing is inferred or uncertain, most often the ends. Where a SMILES comes first, the peptide text is derived from it.
# Amino acid sequences for entries named in this document (tags omitted). Residues count along the entry.
# UniProt O00206, 24-631: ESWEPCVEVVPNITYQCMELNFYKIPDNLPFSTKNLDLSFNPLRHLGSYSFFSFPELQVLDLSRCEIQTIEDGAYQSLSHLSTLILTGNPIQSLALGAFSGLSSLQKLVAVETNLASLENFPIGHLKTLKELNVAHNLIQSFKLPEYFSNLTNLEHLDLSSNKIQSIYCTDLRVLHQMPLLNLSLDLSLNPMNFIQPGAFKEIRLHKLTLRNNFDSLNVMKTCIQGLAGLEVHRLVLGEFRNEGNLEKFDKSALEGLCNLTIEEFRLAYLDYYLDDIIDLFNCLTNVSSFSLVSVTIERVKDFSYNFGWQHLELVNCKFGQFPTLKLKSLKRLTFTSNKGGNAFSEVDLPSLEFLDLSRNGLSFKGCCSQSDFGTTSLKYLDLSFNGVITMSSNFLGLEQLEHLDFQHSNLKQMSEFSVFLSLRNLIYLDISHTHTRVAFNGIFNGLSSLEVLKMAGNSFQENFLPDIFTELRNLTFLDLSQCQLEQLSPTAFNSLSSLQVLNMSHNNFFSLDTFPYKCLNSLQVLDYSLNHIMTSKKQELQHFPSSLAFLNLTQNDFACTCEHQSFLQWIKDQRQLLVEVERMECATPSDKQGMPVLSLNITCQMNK
# Key:
# TLR4 = assay: LPS-induced PMN transendothelial migration, PMNs from wild type C3H/HeN mice; type: cell-based; details: WT mice model
# Experimental: To obtain mice neutrophils from TLR4-deficient [TLR4(−/−)] C3H/HeJ mice and wild type C3H/HeN mice, inflammation was induced by 0.1 ml of uric acid solution into the peritoneal cavity of the mouse. The uric acid solution (noncrystalline form) was prepared by mixing with saline (10% [wt/vol]) and sonicated for 10 min. Immediately before inoculation, the milky white precipitated uric acid solution was shaken vigorously. Peritoneal exudate cells were harvested 4, 18, or 24 h after injection by two lavages of the peritoneal cavity with 5 ml of cold phosphate-buffered saline (PBS; total volume, 10 ml). Uric acid-induced peritoneal cells (UAPMN) were washed by centrifugation at 200×g for 10 min at 4° C. […] The numbers and populations of peritoneal exudate cells were determined by staining the nuclei with Turk reagent and by cytospin centrifugation followed by May-Grünwald-Giemsa staining, respectively. […] Viability of the isolated neutrophils exceeded 95% as determined by trypan blue exclusion. […]
# Neutrophils from human were isolated blood that was drawn in a syringe containing preservative-free heparin (20 U/ml final), and mixed with an equal volume of PBS containing 3% dextran and then incubated for 20 min at room temperature. […] The viability of the isolated neutrophils exceeded 95%, as determined by Trypan blue exclusion. […]
# MD2/TLR4 interaction = MD2/TLR4 interaction (Homo sapiens, UniProt O00206); assay: In vitro protein competition binding assay for MD2/TLR4 interaction; details: MD2 50 nM
# Experimental: The recombinant TLR4 protein was diluted in PBS (2 μg/mL) and immobilized on a 96-well (100 ng/well) ELISA plate by incubation at 37° C. for 2 h. The wells were washed three times with PBS, followed by blocking with the addition of 300 μL 5% BSA in PBS at ambient temperature overnight. Then, the plate was rewashed three times with PBST before performed competition binding assay. The binding of MD2 (50 nM) to TLR4 was competed by adding various amounts (2-fold serial dilution from 50 μM to 3.05 nM) of C70PLY4, N35PLY4, or M50PLY4 peptide, and the residual binding was examined using anti-MD2 and anti-mouse-IgG-HRP antibodies diluted in 1% BSA as described in herein.
smiles,measurement,setting,value
CC[C@H](C)[C@H](NC(=O)[C@H](CCCCN)NC(=O)[C@@H](NC(=O)[C@H](CO)NC(=O)[C@H](CC(C)C)NC(=O)[C@H](CC(N)=O)NC(=O)[C@H](CCCNC(=N)N)NC(=O)[C@@H](NC(=O)[C@H](CC(N)=O)NC(=O)CNC(=O)[C@H](CCCCN)NC(=O)[C@H](CC(C)C)NC(=O)[C@@H]1CCCN1C(=O)[C@@H](NC(=O)[C@H](CO)NC(=O)[C@@H](NC(=O)[C@@H](NC(=O)[C@H](Cc1ccccc1)NC(=O)[C@H](Cc1c[nH]cn1)NC(=O)[C@H](C)NC(=O)[C@@H](NC(=O)[C@H](CC(C)C)NC(=O)[C@H](CC(=O)O)NC(=O)[C@@H](N)CCC(N)=O)[C@@H](C)O)[C@@H](C)O)[C@@H](C)O)[C@@H](C)CC)C(C)C)C(C)C)C(=O)N[C@@H](CCCNC(=N)N)C(=O)N[C@@H](CCC(=O)O)C(=O)N[C@@H](CS)C(=O)N[C@H](C(=O)NCC(=O)N[C@@H](CC(C)C)C(=O)N[C@@H](C)C(=O)N[C@@H](Cc1c[nH]c2ccccc12)C(=O)N[C@@H](CCC(=O)O)C(=O)N[C@@H](Cc1c[nH]c2ccccc12)C(=O)N[C@@H](Cc1c[nH]c2ccccc12)C(N)=O)[C@@H](C)O [N35PLY4] (H-QDLTAHFTTSIPLKGNVRNLSVKIRECTGLAWEWW-NH2),LPS induced PMN migration (FIGS. 11-12),TLR4,inhibitory effects
same,concentration at which MD2 protein is completely competed away,MD2/TLR4 interaction; TLR4-coated well,50 µM
same,blocking capability for MD2 and TLR4 protein interaction (in words),MD2/TLR4 interaction; peptide 50 μM to 3.05 nM,partial blocking capability
same,Ki,"MD2/TLR4 interaction; peptide 50 μM to 3.05 nM, read-out: Ki, blocking of the interaction between MD2 and TLR4 protein",11.2 µM
